Source: patent US20260234559A1
No constants are given. Whether binding was seen depends on the method and setting. Some results given as binding are weak or reduced against the parent protein; the word gives no strength. For part of these data: Sequences can lack the tags named with a protein.

Sequences of proteins named here, by UniProt entry; tags and fusion partners are left off. A change or cut given only in a name is not applied to a line headed by its entry. Residues count along the entry.
UniProt P28906, residues 32-290: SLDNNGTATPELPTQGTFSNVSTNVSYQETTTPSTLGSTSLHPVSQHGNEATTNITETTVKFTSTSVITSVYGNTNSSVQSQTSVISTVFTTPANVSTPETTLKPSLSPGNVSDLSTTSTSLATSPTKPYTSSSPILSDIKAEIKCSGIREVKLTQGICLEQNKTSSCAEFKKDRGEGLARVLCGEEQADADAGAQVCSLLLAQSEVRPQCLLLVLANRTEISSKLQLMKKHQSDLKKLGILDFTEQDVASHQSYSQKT

Columns and labels:
[1] = biological target: recombinant Human CD34-Fc tagged fusion protein (cat 10103-H02H, Sino Biological) (human) (UniProt P28906); assay: flow cytometry; scFv on transduced Tregs incubated with soluble CD34-Fc, detected with secondary anti-Fc antibody
[2] = biological target: recombinant Human CD34-Fc tagged fusion protein (cat 10103-H02H, Sino Biological) (human) (UniProt P28906); assay: flow cytometry; scFv on transduced Tregs stained with soluble CD34-Fc and anti-human Alexa Fluor 647
[3] = biological target: recombinant Human CD34-Fc tagged fusion protein (cat 10103-H02H, Sino Biological) (human) (UniProt P28906); assay: flow cytometry; scFv on cells, detected by two-step staining with CD34 Fc-Tagged and anti-human IgG (method in paragraph 263)

| Binder | binding [1] | binding [2] | binding [3] |
| --- | --- | --- | --- |
| 34-m-scFv (non-activating CD34-targeting scFv derived from QBEND/10 anti-CD34, on human CD28 hinge with myc-tag and CD28 transmembrane domain, expressed on … (scFv, V domains shown) VH: QVQLVQSGAELVKPGASVKMSCKASGYTFTSYVIHWVKQKPGQGLEWLGYTNPYNDVTKYNEKFKFKATLTSDTSSTTAYMEFSSLTSEDSAVYYCARYGGLWLYAMDYWGQGTSVTVSS VL: QLVLTQSPSASFSLGASAKLTCTLSSQHRTFTIEWYQQQPEKPPKYVMELRKDGSHSKGDGIPDRFSGSSSGADRYLSISSIQPEDEAIYICGVGNTIKEQFVYVFGTGTKVTVL | binds | binds |  |
| 34-m-scFv with Linker_1 (QBEND/10 anti-CD34 scFv, linker encoded by SEQ ID NO: 31) (scFv, V domains shown) VH: QVQLVQSGAELVKPGASVKMSCKASGYTFTSYVIHWVKQKPGQGLEWLGYTNPYNDVTKYNEKFKFKATLTSDTSSTTAYMEFSSLTSEDSAVYYCARYGGLWLYAMDYWGQGTSVTVSS VL: QLVLTQSPSASFSLGASAKLTCTLSSQHRTFTIEWYQQQPEKPPKYVMELRKDGSHSKGDGIPDRFSGSSSGADRYLSISSIQPEDEAIYICGVGNTIKEQFVYVFGTGTKVTVL |  |  | binds |
| 34-m-scFv with Linker_2 (QBEND/10 anti-CD34 scFv, linker encoded by SEQ ID NO: 32) (scFv, V domains shown) VH: QVQLVQSGAELVKPGASVKMSCKASGYTFTSYVIHWVKQKPGQGLEWLGYTNPYNDVTKYNEKFKFKATLTSDTSSTTAYMEFSSLTSEDSAVYYCARYGGLWLYAMDYWGQGTSVTVSS VL: QLVLTQSPSASFSLGASAKLTCTLSSQHRTFTIEWYQQQPEKPPKYVMELRKDGSHSKGDGIPDRFSGSSSGADRYLSISSIQPEDEAIYICGVGNTIKEQFVYVFGTGTKVTVL |  |  | binds |
| 34-m-scFv with Linker_3 (QBEND/10 anti-CD34 scFv, linker encoded by SEQ ID NO: 33) (scFv, V domains shown) VH: QVQLVQSGAELVKPGASVKMSCKASGYTFTSYVIHWVKQKPGQGLEWLGYTNPYNDVTKYNEKFKFKATLTSDTSSTTAYMEFSSLTSEDSAVYYCARYGGLWLYAMDYWGQGTSVTVSS VL: QLVLTQSPSASFSLGASAKLTCTLSSQHRTFTIEWYQQQPEKPPKYVMELRKDGSHSKGDGIPDRFSGSSSGADRYLSISSIQPEDEAIYICGVGNTIKEQFVYVFGTGTKVTVL |  |  | binds |
| 34-m-scFv with Linker_4 (QBEND/10 anti-CD34 scFv, linker encoded by SEQ ID NO: 34) (scFv, V domains shown) VH: QVQLVQSGAELVKPGASVKMSCKASGYTFTSYVIHWVKQKPGQGLEWLGYTNPYNDVTKYNEKFKFKATLTSDTSSTTAYMEFSSLTSEDSAVYYCARYGGLWLYAMDYWGQGTSVTVSS VL: QLVLTQSPSASFSLGASAKLTCTLSSQHRTFTIEWYQQQPEKPPKYVMELRKDGSHSKGDGIPDRFSGSSSGADRYLSISSIQPEDEAIYICGVGNTIKEQFVYVFGTGTKVTVL |  |  | binds |
